The values that follow are results of earlier work, collected in publication PMC12805357, “Cooperative ligand binding in a bacterial heme-based oxygen sensor” (The Journal of Biological Chemistry, 2025).

Details of this data set: method as in earlier work. The settings on record: myoglobins; ref 7 of the supplement (Faulkner et al., 1995).

B1: hhMb: myoglobin comparison protein listed as hhMb in Table S2, literature values (protein, UniProt P68082 2-154, looked up)
Myoglobin: GLSDGEWQQVLNVWGKVEADIAGHGQEVLIRLFTGHPETLEKFDKFKHLKTEAEMKASEDLKKHGTVVLTALGGILKKKGHHEAELKPLAQSHATKHKIPIKYLEFISDAIIHVLHSKHPGDFGADAQGAMTKALELFRNDIAAKYKELGFQG
On to B1, for which the n max is listed as 0.95.
